# The other results are listed elsewhere or left out.
# What was measured:
# Assay in all cases: glycan array binding signal (z-score within array); higher = stronger binding
# Details in all cases: glycan notation: IUPAC condensed, linker removed
# [1] = molecular target: Fuc(a1-2)Gal
# In short: (§1)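 Columns mapping to the same glycan were averaged after glycan names were converted to IUPAC-condensed notation. The data come from 3228 arrays in the Consortium for Functional Glycomics database, limited to those with an available protein sequence. Binding is reported as a within-array Z-score averaged across arrays of one protein sequence and across linkers.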
# [2] = molecular target: Fuc(a1-2)Gal(b1-3)GalNAc
# In short: as §1
# [3] = molecular target: Fuc(a1-2)Gal(b1-3)GalNAc(a1-3)[Fuc(a1-2)]Gal(b1-4)Glc
# In short: as §1
# [4] = molecular target: Fuc(a1-2)Gal(b1-3)GalNAc(a1-3)[Fuc(a1-2)]Gal(b1-4)GlcNAc
# In short: as §1
# [5] = molecular target: Fuc(a1-2)Gal(b1-3)GalNAc(b1-3)Gal
# In short: as §1
# [6] = molecular target: Fuc(a1-2)Gal(b1-3)GalNAc(b1-3)Gal(a1-4)Gal(b1-4)Glc
# In short: as §1
# [7] = molecular target: Fuc(a1-2)Gal(b1-3)GalNAc(b1-4)[Neu5Ac(a2-3)]Gal(b1-4)Glc
# In short: as §1
# [8] = molecular target: Fuc(a1-2)Gal(b1-3)GlcNAc
# In short: as §1
# [9] = molecular target: Fuc(a1-2)Gal(b1-3)GlcNAc(b1-2)Man(a1-3)[Fuc(a1-2)Gal(b1-3)GlcNAc(b1-2)Man(a1-6)]Man(b1-4)GlcNAc(b1-4)GlcNAc
# In short: as §1
# [10] = molecular target: Fuc(a1-2)Gal(b1-3)GlcNAc(b1-2)Man(a1-3)[Fuc(a1-2)Gal(b1-3)GlcNAc(b1-2)Man(a1-6)]Man(b1-4)GlcNAc(b1-4)[Fuc(a1-6)]GlcNAc
# In short: as §1
# [11] = molecular target: Fuc(a1-2)Gal(b1-3)GlcNAc(b1-3)Gal(b1-4)Glc
# In short: as §1
# [12] = molecular target: Fuc(a1-2)Gal(b1-3)GlcNAc(b1-3)GalNAc
# In short: as §1
# [13] = molecular target: Fuc(a1-2)Gal(b1-3)GlcNAc(b1-3)[Fuc(a1-2)Gal(b1-3)GlcNAc(b1-6)]GalNAc
# In short: as §1
# [14] = molecular target: Fuc(a1-2)Gal(b1-3)GlcNAc(b1-3)[Gal(b1-4)GlcNAc(b1-6)]Gal(b1-4)Glc
# In short: as §1
# [15] = molecular target: Fuc(a1-2)Gal(b1-3)GlcNAc(b1-3)[Neu5Ac(a2-6)Gal(b1-4)GlcNAc(b1-6)]Gal(b1-4)Glc
# In short: as §1
# [16] = molecular target: Fuc(a1-2)Gal(b1-3)GlcNAc6S
# In short: as §1
# [17] = molecular target: Fuc(a1-2)Gal(b1-3)[Fuc(a1-4)]GlcNAc
# In short: as §1
# [18] = molecular target: Fuc(a1-2)Gal(b1-3)[Fuc(a1-4)]GlcNAc(b1-2)Man(a1-3)[Fuc(a1-2)Gal(b1-3)[Fuc(a1-4)]GlcNAc(b1-2)Man(a1-3)]Man(b1-4)GlcNAc(b1-4)GlcNAc
# In short: as §1
# [19] = molecular target: Fuc(a1-2)Gal(b1-3)[Fuc(a1-4)]GlcNAc(b1-2)Man(a1-3)[Fuc(a1-2)Gal(b1-3)[Fuc(a1-4)]GlcNAc(b1-2)Man(a1-6)]Man(b1-4)GlcNAc(b1-4)[Fuc(a1-6)]GlcNAc(b1-4)[Fuc(a1-6)]GlcNAc
# In short: as §1
# [20] = molecular target: Fuc(a1-2)Gal(b1-3)[Fuc(a1-4)]GlcNAc(b1-3)[Fuc(a1-3)[Gal(b1-4)]GlcNAc(b1-6)]Gal(b1-4)Glc
# In short: as §1
# [21] = molecular target: Fuc(a1-2)Gal(b1-3)[Fuc(a1-4)]GlcNAc(b1-3)[Gal(b1-4)GlcNAc(b1-6)]Gal(b1-4)Glc
# In short: as §1
# [22] = molecular target: Fuc(a1-2)Gal(b1-4)Glc
# In short: as §1
# [23] = molecular target: Fuc(a1-2)Gal(b1-4)Glc6S
# In short: as §1
# [24] = molecular target: Fuc(a1-2)Gal(b1-4)GlcNAc
# In short: as §1
# [25] = molecular target: Fuc(a1-2)Gal(b1-4)GlcNAc(b1-2)Man
# In short: as §1
# [26] = molecular target: Fuc(a1-2)Gal(b1-4)GlcNAc(b1-2)Man(a1-3)[Fuc(a1-2)Gal(b1-4)GlcNAc(b1-2)Man(a1-6)]Man(b1-4)GlcNAc(b1-4)GlcNAc
# In short: as §1
# [27] = molecular target: Fuc(a1-2)Gal(b1-4)GlcNAc(b1-2)Man(a1-3)[Fuc(a1-2)Gal(b1-4)GlcNAc(b1-2)Man(a1-6)]Man(b1-4)GlcNAc(b1-4)[Fuc(a1-6)]GlcNAc
# In short: as §1
# [28] = molecular target: Fuc(a1-2)Gal(b1-4)GlcNAc(b1-2)[Fuc(a1-2)Gal(b1-4)GlcNAc(b1-4)]Man(a1-3)[Fuc(a1-2)Gal(b1-4)GlcNAc(b1-2)Man(a1-6)]Man(b1-4)GlcNAc(b1-4)GlcNAc
# In short: as §1
# [29] = molecular target: Fuc(a1-2)Gal(b1-4)GlcNAc(b1-3)Gal(b1-4)GlcNAc
# In short: as §1
# [30] = molecular target: Fuc(a1-2)Gal(b1-4)GlcNAc(b1-3)Gal(b1-4)GlcNAc(b1-2)Man(a1-3)[Fuc(a1-2)Gal(b1-4)GlcNAc(b1-3)Gal(b1-4)GlcNAc(b1-2)Man(a1-6)]Man(b1-4)GlcNAc(b1-4)GlcNAc
# In short: as §1
# [31] = molecular target: Fuc(a1-2)Gal(b1-4)GlcNAc(b1-3)Gal(b1-4)GlcNAc(b1-3)Gal(b1-4)GlcNAc
# In short: as §1
# [32] = molecular target: Fuc(a1-2)Gal(b1-4)GlcNAc(b1-3)GalNAc
# In short: as §1
# [33] = molecular target: Fuc(a1-2)Gal(b1-4)GlcNAc(b1-3)[Fuc(a1-2)Gal(b1-4)GlcNAc(b1-6)]GalNAc
# In short: as §1
# [34] = molecular target: Fuc(a1-2)Gal(b1-4)GlcNAc(b1-3)[Fuc(a1-3)[Gal(b1-4)]GlcNAc(b1-6)]Gal(b1-4)Glc
# In short: as §1
# [35] = molecular target: Fuc(a1-2)Gal(b1-4)GlcNAc(b1-6)GalNAc
# In short: as §1
# [36] = molecular target: Fuc(a1-2)Gal(b1-4)GlcNAc6S
# In short: as §1
# [37] = molecular target: Fuc(a1-2)Gal(b1-4)[Fuc(a1-3)]GlcNAc
# In short: as §1
# [38] = molecular target: Fuc(a1-2)Gal(b1-4)[Fuc(a1-3)]GlcNAc(b1-2)Man(a1-3)[Fuc(a1-2)Gal(b1-4)[Fuc(a1-3)]GlcNAc(b1-2)Man(a1-6)]Man(b1-4)GlcNAc(b1-4)[Fuc(a1-6)]GlcNAc
# In short: as §1
# [39] = molecular target: Fuc(a1-2)Gal(b1-4)[Fuc(a1-3)]GlcNAc(b1-2)[Fuc(a1-2)Gal(b1-4)[Fuc(a1-3)]GlcNAc(b1-4)]Man(a1-3)[Fuc(a1-2)Gal(b1-4)[Fuc(a1-3)]GlcNAc(b1-2)Man(a1-6)]Man(b1-4)GlcNAc(b1-4)GlcNAc
# In short: as §1
# [40] = molecular target: Fuc(a1-2)Gal(b1-4)[Fuc(a1-3)]GlcNAc(b1-3)Gal(b1-4)[Fuc(a1-3)]GlcNAc
# In short: as §1
# [41] = molecular target: Fuc(a1-2)Gal(b1-4)[Fuc(a1-3)]GlcNAc(b1-3)Gal(b1-4)[Fuc(a1-3)]GlcNAc(b1-3)Gal(b1-4)[Fuc(a1-3)]GlcNAc
# In short: as §1
# [42] = molecular target: Fuc(a1-2)Gal(b1-4)[Fuc(a1-3)]GlcNAc(b1-3)GalNAc
# In short: as §1
# [43] = molecular target: Fuc(a1-2)Gal(b1-4)[Fuc(a1-3)]GlcNAc(b1-3)[Neu5Ac(a2-6)Gal(b1-4)GlcNAc(b1-6)]Gal(b1-4)Glc
# In short: as §1
# [44] = molecular target: Fuc(a1-2)Gal3S(b1-4)GlcNAc
# In short: as §1
# [45] = molecular target: Fuc(a1-2)Gal6S(b1-3)GlcNAc
# In short: as §1
binder,measurement,setting,value
PX9961M-bvu-482-23-482 (Bacteroides vulgatus) (protein) WLDLAPSTQVDTETSINVLSDIEFTLNGIYSTMQSSDAYSGRLVYYGDVTGDDMQAVSSTKRTGNYYRFNFTKDNGPSSHWSYLYSIIQNCNLILMNVDKLSIDEDETEYKNDLKGQALAIRGMALFDLTRIFGYPYLKDNGASLGVPIVKELSTIDSKPARNTVAECYTEIISDLKNSTELLSGDFNKGKVNRWAAMTLLSRVYLYKGEYNEALTMAENAIKGAEKEGYALWTNEEYPTAWGNDASASNPGEILFEIVNLTTDSPGKESMGYLNSYNGYDDMCITCSFYQLLKKDPKDVRLKILSFDKKYYAYVNKYQPQQGENITDANIPLIRLSEAYLNAAEAAVQTGDNAKAVKYLNSIVQRANPENSVEGKTLTLENVLDERRKELVAEGHRMYDVIRNGMTVKRIDVKDSDINKTKHNTAYMEYDWNFHKILLPIPKKEMDANPNMKQNPGYVD,glycan array binding signal (z-score),[1],-0.065
same,glycan array binding signal (z-score),[2],0.581
same,glycan array binding signal (z-score),[3],-0.773
same,glycan array binding signal (z-score),[4],-0.555
same,glycan array binding signal (z-score),[5],-0.507
same,glycan array binding signal (z-score),[6],-0.18
same,glycan array binding signal (z-score),[7],0.459
same,glycan array binding signal (z-score),[8],-0.671
same,glycan array binding signal (z-score),[9],0.321
same,glycan array binding signal (z-score),[10],-0.012
same,glycan array binding signal (z-score),[11],-0.284
same,glycan array binding signal (z-score),[12],-1.09
same,glycan array binding signal (z-score),[13],-0.153
same,glycan array binding signal (z-score),[14],0.767
same,glycan array binding signal (z-score),[15],0.123
same,glycan array binding signal (z-score),[16],0.432
same,glycan array binding signal (z-score),[17],-0.893
same,glycan array binding signal (z-score),[18],-0.346
same,glycan array binding signal (z-score),[19],-0.077
same,glycan array binding signal (z-score),[20],-0.678
same,glycan array binding signal (z-score),[21],0.057
same,glycan array binding signal (z-score),[22],-0.937
same,glycan array binding signal (z-score),[23],0.624
same,glycan array binding signal (z-score),[24],-0.538
same,glycan array binding signal (z-score),[25],-0.349
same,glycan array binding signal (z-score),[26],0.28
same,glycan array binding signal (z-score),[27],0.59
same,glycan array binding signal (z-score),[28],1.74
same,glycan array binding signal (z-score),[29],-1.33
same,glycan array binding signal (z-score),[30],1.21
same,glycan array binding signal (z-score),[31],0.058
same,glycan array binding signal (z-score),[32],0.732
same,glycan array binding signal (z-score),[33],0.468
same,glycan array binding signal (z-score),[34],-0.231
same,glycan array binding signal (z-score),[35],0.551
same,glycan array binding signal (z-score),[36],-0.043
same,glycan array binding signal (z-score),[37],-0.301
same,glycan array binding signal (z-score),[38],0.488
same,glycan array binding signal (z-score),[39],-0.025
same,glycan array binding signal (z-score),[40],-0.577
same,glycan array binding signal (z-score),[41],0.316
same,glycan array binding signal (z-score),[42],-0.235
same,glycan array binding signal (z-score),[43],-0.584
same,glycan array binding signal (z-score),[44],-0.886
same,glycan array binding signal (z-score),[45],-0.427

# As a short view, some entries already given.
binder,measurement,setting,value
PX9961M-bvu-482-23-482 (Bacteroides vulgatus) (protein) WLDLAPSTQVDTETSINVLSDIEFTLNGIYSTMQSSDAYSGRLVYYGDVTGDDMQAVSSTKRTGNYYRFNFTKDNGPSSHWSYLYSIIQNCNLILMNVDKLSIDEDETEYKNDLKGQALAIRGMALFDLTRIFGYPYLKDNGASLGVPIVKELSTIDSKPARNTVAECYTEIISDLKNSTELLSGDFNKGKVNRWAAMTLLSRVYLYKGEYNEALTMAENAIKGAEKEGYALWTNEEYPTAWGNDASASNPGEILFEIVNLTTDSPGKESMGYLNSYNGYDDMCITCSFYQLLKKDPKDVRLKILSFDKKYYAYVNKYQPQQGENITDANIPLIRLSEAYLNAAEAAVQTGDNAKAVKYLNSIVQRANPENSVEGKTLTLENVLDERRKELVAEGHRMYDVIRNGMTVKRIDVKDSDINKTKHNTAYMEYDWNFHKILLPIPKKEMDANPNMKQNPGYVD,glycan array binding signal (z-score),[33],0.468
same,glycan array binding signal (z-score),[34],-0.231
same,glycan array binding signal (z-score),[35],0.551
same,glycan array binding signal (z-score),[36],-0.043
same,glycan array binding signal (z-score),[37],-0.301
same,glycan array binding signal (z-score),[38],0.488
same,glycan array binding signal (z-score),[39],-0.025
same,glycan array binding signal (z-score),[40],-0.577
same,glycan array binding signal (z-score),[41],0.316
